Binding data for 1 molecule are collected here from article PMC8500422.

Sequences of proteins named here, by UniProt entry; tags and fusion partners are left off. A change or cut given only in a name is not applied to a line headed by its entry. A line that says so, or that is headed by a name, gives the form on record, which may keep a tag or linker. Residues count along the entry.
UniProt Q8IZL9: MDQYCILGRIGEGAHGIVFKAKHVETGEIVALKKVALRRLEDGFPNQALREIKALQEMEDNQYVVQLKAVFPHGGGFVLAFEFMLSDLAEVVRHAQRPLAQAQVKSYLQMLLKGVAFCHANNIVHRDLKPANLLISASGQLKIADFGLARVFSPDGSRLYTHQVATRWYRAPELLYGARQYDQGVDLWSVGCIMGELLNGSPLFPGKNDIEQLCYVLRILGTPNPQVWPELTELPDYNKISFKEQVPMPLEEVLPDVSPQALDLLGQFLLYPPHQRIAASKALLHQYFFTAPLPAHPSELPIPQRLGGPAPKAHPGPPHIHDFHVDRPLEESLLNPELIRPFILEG
EGFP-fused CCRK(1–330): residues 1-330 of Q8IZL9
EGFP-fused CCRK(1–289): residues 1-289 of Q8IZL9
EGFP-fused CCRK(290–346): residues 290-346 of Q8IZL9

No constants are given. Whether binding was seen depends on the method and setting. Binding seen in cells or lysates may run through a third protein. Some entries that bind do so weakly or less than the wild type.

Experiment [1] has as its target EGFP-fused CCRK(WT) (human) (UniProt Q8IZL9). Put plainly: co-IP; visible immunoprecipitation (VIP) assay: lysates of HEK293T cells coexpressing EGFP-fused and mChe-fused proteins (HMDEKN buffer: 10 mM HEPES pH 7.4, 5 mM MgSO4, 1 mM DTT, 0.5 mM EDTA, 25 mM KCl, 0.05% NP-40), precipitated with GST-tagged anti-GFP Nb on glutathione–Sepharose 4B beads, 1 h at 4°C; red fluorescence on the washed beads observed under a microscope.

In experiment [2] the target is EGFP-fused CCRK(290–346) (human) (UniProt Q8IZL9). Described as above.
Experiment [3] concerns the target EGFP-fused CCRK(1–330) (human) (UniProt Q8IZL9). Described as above.
Experiment [4] concerns the target EGFP-fused CCRK(K33R) (human) (UniProt Q8IZL9). The experiment is described as above.
Experiment [5] addresses EGFP-fused CCRK(WT) (human) (UniProt Q8IZL9). Put plainly: co-IP; the beads of the VIP assay (EGFP-fused protein precipitated with GST-tagged anti-GFP Nb from HEK293T lysates) subjected to SDS-PAGE and immunoblotting with anti-mChe or anti-GFP antibody. In general terms: A western blot detects proteins with antibodies after separation by electrophoresis.
The target of experiment [6] is EGFP-fused CCRK(1–289) (human) (UniProt Q8IZL9). The experiment is described as above.
The target in experiment [7] is EGFP-fused CCRK(290–346) (human) (UniProt Q8IZL9). The experiment is described as above.
Experiment [8] has as its target EGFP-fused CCRK(1–330) (human) (UniProt Q8IZL9). The experiment is described as above.
Experiment [9] has as its target EGFP-fused CCRK(K33R) (human) (UniProt Q8IZL9). The experiment is described as above.

B1: BROMI-mChe (protein, UniProt Q96NH3-4 1-1298)
chain: MAHFSSEDQAMLQAMLRRLFQSVKEKITGAPSLECAEEILLHLEETDENFHNYEFVKYLRQHIGNTLGSMIEEEMEKCTSDRNQGEECGYDTVVQQVTKRTQESKEYKEMMHYLKNIMIAVVESMINKFEEDETRNQERQKKIQKEKSHSYRTDNCSDSDSSLNQSYKFCQGKLQLILDQLDPGQPKEVRYEALQTLCSAPPSDVLNCENWTTLCEKLTVSLSDPDPVFSDRILKFCAQTFLLSPLHMTKEIYTSLAKYLESYFLSRENHIPTLSAGVDITNPNMTRLLKKVRLLNEYQKEAPSFWIRHPEKYMEEIVESTLSLLTVKHNQSHVVSQKILDPIYFFALVDTKAVWFKKWMHAHYSRTTVLRLLETKYKSLVTTAIQQCVQYFEMCKTRKADETLGHSKHCRNKQKTFYYLGQELQYIYFIHSLCLLGRLLIYKQGRKLFPIKLKNKKGLVSLIDLLVLFTQLIYYSPSCPKMTSAAHSENYSPASMVTEVLWILSDQKECAVECLYNNIVIETLLQPIHNLMKGNEASPNCSETALIHIAGILARIASVEEGLILLLYGANMNSSEESPTGAHIIAQFSKKLLDEDISIFSGSEMLPVVKGAFISVCRHIYSTCEGLQVLITYNLHESIAKAWKKTSLLSERIPTPVEGSDSVSSVSQESQNIMAWEDNLLDDLLHFAATPKGLLLLQRTGAINECVTFIFNRYAKKLQVSRHKKFGYGVLVTRVASTAAGGIALKKSGFINELITELWSNLEYGRDDVRVTHPRTTPVDPIDRSCQKSFLALVNLLSYPAIYELVRNQDLPNKTEYSLREVPTCVIDIIDRLIILNSEAKIRSLFNYEQSHIFGLRLLSVICCDLDTLLLLEAQYQVSEMLLNAQEENILEISESHRDFIIDGLSVERNHVLVRINLVGGPLERILPPRLLEKSDNPYPWPMFSSYPLPNCYLSDITRNAGIKQDNDLDKLLLCLKISDKQTEWIENCQRQFCKMMKAKPDIISGEALIELLEKFVLHLTESPSECYFPSVEYTATDANVKNESLSSVQQLGIKMTVRYGKFLSLLKDGAENDLTWVLKHCERFLKQQQTSIKSSLLCLQGNYAGHDWFVSSLFMIMLGDKEKTFQFLHQFSRLLTSAFLWLPRLHISSYLPNDTVESGIHPVYFCSTHYIEMLLKAELPLVFSAFHMSGFAPSQICLQWITQCFWNYLDWIEICHYIATCVFLGPDYQVYICIAVFKHLQQDILQHTQTQDLQVFLKEEALHGFRVSDYFEYMEILEQNYRTVLLRDMRNIRLQST
Take B1: the binding entry in experiment [1] was “binds”; in [2], “binds”; in experiment [3], “no binding”; in [4], “binds”; in experiment [5] it was “binds”; in experiment [6], “no binding”. For the same molecule, the binding entry is given as “binds” in experiment [7], “no binding” in experiment [8] and “binds” in experiment [9].
